A short description of the data set: general procedure: solution-phase peptide synthesis; N-hydroxysuccinimide active esters (EDCl).
[1] abbreviates: late stage modification step, acetic acid salt.
The mark [2] stands for this setting: late stage modification step, trifluoroacetate.

Strings that start with PEPTIDE1 are HELM notation: dots part the residues, brackets hold end groups and non-standard residues.

Consider t-BOC-Trp-Lys-(NMe)AspPheNH2, for which the step yield under setting [1] turned out to be 67%. For the setting “late stage modification step”, “PEPTIDE1{[Boc].W.[Lys(ThAcr)].[NMeAsp].F.[am]}$$$$V2.0” showed a step yield of 62%. The substance “Methylaminocarbonyl-Trp-Lys(ε-N-(2-methylphenyl)aminocarbonyl)-Asp(OBn)-(NMe)PheNH2” came in with a step yield (late stage modification step) of 88%. “t-BOC-Trp-Lys(ε-N-(2-methylphenyl)aminocarbonyl)-Asp(β-(OCH2 --CO--N(CH3)2))-(NMe)PheNH2” yielded a step yield (coupling step) of 85% yield. Turning to “H-Trp-Lys(2-methylphenylaminocarbonyl)-AspN(Me)PheNH2 trifluoroacetate”, under setting [2], the step yield is 98%. On to “t-BOC-Trp-Lys(ε-N-(2-methylphenyl)aminocarbonyl)-Asp(OBn)-(NMe)PheNH2”, for which the step yield (coupling step) was 95%. Consider t-BOC-Trp-Lys-(NMe)Asp-(NMe)PheNH2, for which, under setting [1], the step yield is recorded as 86%. As to “PEPTIDE1{[Boc].W.[Lys(2MePhNHCO)].[Asp(OEtMor)].[NMePhe].[am]}$$$$V2.0”, the step yield (coupling step) came out at 74% yield. In the case of “Isobutyloxycarbonyl-Trp-Lys(ε-N-(2-methylphenyl)aminocarbonyl)-(NMe)Asp-PheNH2”, the step yield (late stage modification step) turned out to be 82% yield. On to “PEPTIDE1{[tBuNHCO].W.[Lys(Tac)].D.[NMePhe].[am]}$$$$V2.0”, for which the difficulty met entry (late stage modification step) was “The reaction was incomplete after 1 day”. As to “Trp-Lys(ε-N-(2-methylphenyl)aminocarbonyl)-Asp(OBn)-(NMe)PheNH2 trifluoroacetate”, the step yield under setting [2] is on record as 92%. Substance “PEPTIDE1{[Boc].W.[Lys(3PyAcr)].[NMeAsp].F.[am]}$$$$V2.0” yielded a step yield (late stage modification step) of 64%. The substance “PEPTIDE1{[NMeTrp].[Lys(oTolNHCO)].[NMeAsp].F.[am]}$$$$V2.0” registered a step yield (late stage modification step, HCl) of 79%.

Under “coupling step”, “t-BOC-Trp-Lys(ε-benzyloxycarbonyl)-(NMe)Asp(OBn)-PheNH2” gave a step yield of 68%. On to “t-BOC-Trp-(NMe)Lys(ε-N-(2-methylphenyl)aminocarbonyl)-Asp-(NMe)PheNH2”, for which the isolated yield (whole synthesis) was found to be 50%.

On to “(3-Carboxylpropionyl)-Trp-Lys(ε-N-(2-methylphenyl)aminocarbonyl)-Asp(OBn)-(NMe)PheNH2”, for which, under “late stage modification step”, the step yield turned out to be 95%. Same read-out and setting: the same measure for “PEPTIDE1{[NMeTrp].[Lys_oTolNHCO].[NMeAsp].[aNal].[am]}$$$$V2.0”: 37%; for “t-BOC-(NMe)Trp-Lys(ε-N-(2-methylphenyl)aminocarbonyl)-(NMe)Asp-α-NalNH2”: 73%. On the same count and under the same terms, the same measure for “t-BOC-Trp-Lys-(ε-N-3-(3-pyridyl)acrylyl)-(NMe)Asp-(NMe)PheNH2”: 66%.
